We go through three molecules from article doi:10.1101/2022.04.27.489770.

Amino acid sequences for entries named in this document (tags omitted).
UniProt P29469: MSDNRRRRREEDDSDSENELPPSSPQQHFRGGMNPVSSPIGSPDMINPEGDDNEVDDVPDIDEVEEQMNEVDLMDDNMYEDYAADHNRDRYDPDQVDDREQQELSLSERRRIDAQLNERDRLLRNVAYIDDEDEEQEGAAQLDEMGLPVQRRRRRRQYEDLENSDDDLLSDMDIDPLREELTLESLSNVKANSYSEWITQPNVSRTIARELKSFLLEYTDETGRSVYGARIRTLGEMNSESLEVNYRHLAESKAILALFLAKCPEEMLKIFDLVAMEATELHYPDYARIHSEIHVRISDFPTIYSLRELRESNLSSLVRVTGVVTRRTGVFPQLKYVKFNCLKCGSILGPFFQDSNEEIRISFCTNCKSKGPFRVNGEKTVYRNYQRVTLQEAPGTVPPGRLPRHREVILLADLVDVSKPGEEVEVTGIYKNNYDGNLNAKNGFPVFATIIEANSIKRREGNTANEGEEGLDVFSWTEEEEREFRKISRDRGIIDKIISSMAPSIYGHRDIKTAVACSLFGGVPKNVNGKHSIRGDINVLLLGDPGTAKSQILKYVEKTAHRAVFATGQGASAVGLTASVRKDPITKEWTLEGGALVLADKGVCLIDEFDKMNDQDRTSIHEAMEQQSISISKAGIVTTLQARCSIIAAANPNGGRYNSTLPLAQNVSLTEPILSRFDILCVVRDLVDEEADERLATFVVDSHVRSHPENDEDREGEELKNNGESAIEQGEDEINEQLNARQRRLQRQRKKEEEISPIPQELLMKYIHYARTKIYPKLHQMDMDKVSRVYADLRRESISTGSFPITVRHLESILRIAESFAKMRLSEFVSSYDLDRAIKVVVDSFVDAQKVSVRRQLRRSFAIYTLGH

What all share (assay): co-IP
The target of assay [1] is T1, Spt6-3XFLAG (wild-type Spt6 with a C-terminal 3XFLAG epitope tag) (S. cerevisiae) (UniProt P23615).
T1 sequence: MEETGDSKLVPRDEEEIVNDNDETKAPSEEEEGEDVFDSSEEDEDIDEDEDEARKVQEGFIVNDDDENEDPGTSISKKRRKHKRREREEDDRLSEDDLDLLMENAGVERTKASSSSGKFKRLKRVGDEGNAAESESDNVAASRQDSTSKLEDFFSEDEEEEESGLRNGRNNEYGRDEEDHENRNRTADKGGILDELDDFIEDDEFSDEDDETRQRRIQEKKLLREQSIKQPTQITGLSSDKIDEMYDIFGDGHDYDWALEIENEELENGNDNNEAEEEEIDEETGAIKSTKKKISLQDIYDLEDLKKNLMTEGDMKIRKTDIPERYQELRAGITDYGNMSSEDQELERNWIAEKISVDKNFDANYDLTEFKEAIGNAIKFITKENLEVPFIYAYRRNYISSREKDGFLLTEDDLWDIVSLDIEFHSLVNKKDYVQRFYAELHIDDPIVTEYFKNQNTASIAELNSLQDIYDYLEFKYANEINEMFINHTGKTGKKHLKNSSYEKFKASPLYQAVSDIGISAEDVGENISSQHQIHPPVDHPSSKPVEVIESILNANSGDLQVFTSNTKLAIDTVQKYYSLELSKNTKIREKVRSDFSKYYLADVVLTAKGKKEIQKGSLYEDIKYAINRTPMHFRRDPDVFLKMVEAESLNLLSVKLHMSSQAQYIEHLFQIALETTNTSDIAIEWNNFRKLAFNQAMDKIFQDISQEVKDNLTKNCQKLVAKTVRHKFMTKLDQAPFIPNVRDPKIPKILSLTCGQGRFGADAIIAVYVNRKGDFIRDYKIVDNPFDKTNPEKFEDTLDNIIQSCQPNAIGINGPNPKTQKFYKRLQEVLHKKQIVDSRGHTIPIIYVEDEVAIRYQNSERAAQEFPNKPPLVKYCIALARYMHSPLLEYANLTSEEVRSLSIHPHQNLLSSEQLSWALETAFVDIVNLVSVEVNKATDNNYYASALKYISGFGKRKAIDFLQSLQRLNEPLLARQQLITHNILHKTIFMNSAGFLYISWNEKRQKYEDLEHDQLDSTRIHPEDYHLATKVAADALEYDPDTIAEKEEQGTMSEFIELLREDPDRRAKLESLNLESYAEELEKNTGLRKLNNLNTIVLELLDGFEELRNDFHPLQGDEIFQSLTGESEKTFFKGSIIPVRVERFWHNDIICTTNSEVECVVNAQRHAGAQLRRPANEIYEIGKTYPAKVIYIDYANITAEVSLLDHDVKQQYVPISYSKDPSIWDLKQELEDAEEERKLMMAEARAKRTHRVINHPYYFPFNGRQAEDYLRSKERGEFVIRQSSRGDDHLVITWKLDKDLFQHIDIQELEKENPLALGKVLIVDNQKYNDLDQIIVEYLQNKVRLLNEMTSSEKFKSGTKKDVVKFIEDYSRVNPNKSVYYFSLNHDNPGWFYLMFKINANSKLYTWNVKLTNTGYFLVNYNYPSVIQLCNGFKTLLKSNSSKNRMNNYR

The target of another assay is Mcm2-V5 (S. cerevisiae) (UniProt P29469).
For another assay, the target named is T2, Mcm4-V5 (S. cerevisiae) (UniProt P30665).
T2 sequence: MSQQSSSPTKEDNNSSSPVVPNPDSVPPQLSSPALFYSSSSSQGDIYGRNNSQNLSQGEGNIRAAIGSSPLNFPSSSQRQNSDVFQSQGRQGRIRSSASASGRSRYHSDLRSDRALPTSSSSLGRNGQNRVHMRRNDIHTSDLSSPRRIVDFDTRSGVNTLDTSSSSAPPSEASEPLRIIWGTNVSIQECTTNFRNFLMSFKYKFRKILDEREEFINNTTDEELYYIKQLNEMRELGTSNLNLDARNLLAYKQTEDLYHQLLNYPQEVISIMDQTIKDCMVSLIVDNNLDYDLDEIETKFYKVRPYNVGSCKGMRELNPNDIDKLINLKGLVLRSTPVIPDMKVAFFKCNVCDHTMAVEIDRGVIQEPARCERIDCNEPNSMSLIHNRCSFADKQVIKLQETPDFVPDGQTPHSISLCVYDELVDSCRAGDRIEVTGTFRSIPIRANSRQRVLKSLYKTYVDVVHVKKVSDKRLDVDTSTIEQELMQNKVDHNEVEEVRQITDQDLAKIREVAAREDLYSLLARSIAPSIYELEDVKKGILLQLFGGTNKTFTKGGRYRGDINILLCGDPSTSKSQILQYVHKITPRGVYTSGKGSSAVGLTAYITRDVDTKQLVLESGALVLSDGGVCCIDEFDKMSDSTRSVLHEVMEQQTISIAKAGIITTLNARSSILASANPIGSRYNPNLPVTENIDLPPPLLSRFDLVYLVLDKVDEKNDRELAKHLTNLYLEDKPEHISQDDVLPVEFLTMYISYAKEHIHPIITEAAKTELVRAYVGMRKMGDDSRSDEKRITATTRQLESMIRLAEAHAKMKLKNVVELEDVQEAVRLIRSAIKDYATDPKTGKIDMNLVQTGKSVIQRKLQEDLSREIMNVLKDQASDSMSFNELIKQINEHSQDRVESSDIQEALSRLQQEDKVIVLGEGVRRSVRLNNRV

Assay [2] addresses T1, Spt6-3XFLAG (wild-type Spt6 with a C-terminal 3XFLAG epitope tag) (S. cerevisiae). The source holds these as a separate data set.
Assay [3] has as its target T3, 3X-FLAG-Spt6 (wild-type Spt6 with an N-terminal 3XFLAG epitope tag) (S. cerevisiae) (UniProt P23615).
T3 sequence: T1 sequence

Where two headings read alike, the source gives them in different places. These are yes or no findings as the source states them, for the method shown. In cells and extracts the contact can be indirect. Some binding calls cover weakened binding; strength is not graded here. Sequences can lack the tags named with a protein.

Mcm2-V5 (from UniProt P29469 1-868): in assay [1], the binding result is on record as “binds”.

B1: Spt6-3XFLAG (wild-type Spt6 with a C-terminal 3XFLAG epitope tag) (protein, UniProt P23615 1-1451)
chain: T1 sequence
In the case of B1, the binding entry with Mcm2-V5 (S. cerevisiae) and with Mcm4-V5 (S. cerevisiae) was “binds” in each case.

B2: Mcm4-V5 (protein, UniProt P30665 1-933)
chain: T2 sequence
For the molecule B2, the binding entry in assay [2] and in assay [3] was “binds” throughout.
